No constants are given. Whether binding was seen depends on the method and setting. Some entries that bind do so weakly or less than the wild type.

Protein sequences, listed by entry. Tags and fused reporters are not part of them. Lines headed by an entry give the natural chain unless they say otherwise; changes in a name come on top.
UniProt P87173: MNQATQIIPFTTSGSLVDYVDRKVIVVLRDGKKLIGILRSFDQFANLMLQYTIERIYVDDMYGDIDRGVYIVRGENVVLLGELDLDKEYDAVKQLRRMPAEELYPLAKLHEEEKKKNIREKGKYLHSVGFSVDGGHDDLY

The values below come from article PMC7491320.

This test has as its target Lsm1–7 complex (S. pombe) (UniProt P87173). Put plainly: co-purification (Ni-NTA, heparin, gel filtration); PatMC coexpressed with Lsm1–7 in E. coli (pET-Duet); His6 on Lsm1 bound to Ni-NTA in 2 M NaCl, heparin column, TEV, Superdex 200 16/60 in 400 mM NaCl, 20 mM HEPES 7.0, 1 mM DTT.

B1: PatMC (middle and carboxy-terminal domains of Pat1, residues 296–754) (domain or fragment, UniProt O42958 296-754)
chain: LDEKRQKLERDHMLMAQCAGLMTRSDKSFIARIQISQLMSEDPESDDFYYRVYSIIRGRKPSEEEASHFIQTYLGPSNNRRRGRRSENPMQKLQQQLQRLVSSAKERPKATQLSLEGALGKIAVNTVRTPRQLLNVKRPTEPASSNSSLNNFSGFSTKKDVLHAIEKVYDLLLDFEQALRKASTLETTDQEQIDTWKTTLSEKLESIWKALYINESLEASSKTRPPFISIISHPKGMRLLPRLFPHLSKEQQISILKVVVYNFDSLDIVLRGTFDVNGELPLDVVSEMSSFTQFIIPPLLTIVNELDLETINNLFSQLLNRTNAVYLIQTKIGLSFLTLFISRAEILKQSGTVNQNEKEEWENTFNVMFNRVKGHFSTVFPPPNARAYADESYPWEFLAACATAASSEQHFTLVSETRDRVLDNIITSKRAPSEIAVVRISNVNLFLNAMGLDARQLSA
For the molecule B1, the binding result was “binds”.
